From the supplement of paper PMC12823440, “Inhibitors supercharge kinase turnover through native proteolytic circuits” (Nature, 2025)
Structures can show the parent of a compound that is named as a salt. This is one part of the list. The calls rarely recur for the same compound in another form.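 Kinases, fused to nanoluciferase, were expressed in K562 cells; luminescence was measured every 4 h from 2 to 18 h as percent of control (DMSO = 100%, positive control = 0%). A time point is decreased if signal falls significantly (2 sigma). Hits were called by the authors by a rule that is not shown; the count of time points alone does not decide it.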

Sequences of proteins named here, by UniProt entry; tags and fusion partners are left off. A change or cut given only in a name is not applied to a line headed by its entry.
UniProt Q92630: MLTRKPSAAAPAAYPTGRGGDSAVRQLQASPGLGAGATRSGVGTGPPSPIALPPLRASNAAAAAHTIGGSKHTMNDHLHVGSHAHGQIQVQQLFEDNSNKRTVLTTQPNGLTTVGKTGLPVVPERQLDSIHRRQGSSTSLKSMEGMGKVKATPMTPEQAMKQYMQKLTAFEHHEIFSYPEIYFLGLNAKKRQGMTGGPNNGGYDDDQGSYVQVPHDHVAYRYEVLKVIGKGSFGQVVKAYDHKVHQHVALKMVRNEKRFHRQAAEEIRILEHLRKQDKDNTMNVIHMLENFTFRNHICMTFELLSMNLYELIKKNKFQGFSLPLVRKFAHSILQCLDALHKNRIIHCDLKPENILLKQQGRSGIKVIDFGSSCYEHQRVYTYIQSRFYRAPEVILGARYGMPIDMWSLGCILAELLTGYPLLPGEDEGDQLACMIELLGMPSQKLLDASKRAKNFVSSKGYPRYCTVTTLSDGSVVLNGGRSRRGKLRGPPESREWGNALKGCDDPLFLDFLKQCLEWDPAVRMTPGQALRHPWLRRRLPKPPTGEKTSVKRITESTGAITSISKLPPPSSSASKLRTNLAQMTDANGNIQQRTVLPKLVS

What follows are compounds tested against DYRK2 (UniProt Q92630) (assay: number of time points (of 5) at which kinase-Nluc abundance scored as decreased, DMSO-normalised (count); higher = more persistent destabilization). Conditions: K562; 2-18 h.

With O=c1nc(N2CCOCC2)oc2c(-c3cccc4c3sc3ccccc34)cccc12 (10 µM) as the compound, how does the “number of time points” value read?
Its value is 0.

O=C(Nc1cccc(-c2nncn2C2CC2)c1)c1cc(-n2cnc(C3CC3)c2)ccn1 (10 µM) was tested. Which “number of time points” value did it give?
Its value is 0.

CSc1ccc(CN2CCCC(Nc3ccc4[nH]ncc4c3)C2)cc1 (stereo unspecified) [Rho-Kinase-IN-1] (10 µM) was tested. Which “number of time points” value did it give?
Its value is 0.

For Oc1ccccc1C(=S)N1CCCC1 (10 µM), which “number of time points” value is on record?
The value was 0.

How did the “number of time points” value turn out when COC(=O)N[C@@H](C)CNc1nccc(-c2cn(C(C)C)nc2-c2cc(Cl)cc(NS(C)(=O)=O)c2F)n1 [Encorafenib] (10 µM) was run?
The value was 0.

Which “number of time points” value does the source give for C=CS(=O)(=O)c1ccc(Nc2nc(OCC3CCCCC3)c3[nH]cnc3n2)cc1 (2.5 µM) here?
Its value is 0.

Which “number of time points” value does the source give for O=c1[nH]ccc2cc(OC3CCNCC3)ccc12 (10 µM) here?
Its value is 0.

The compounds below were run against EGFR (UniProt P00533) in the same assay as above. Conditions: K562; 2-18 h.

Which “number of time points” value does the source give for O=C1NC(=O)C(c2cn(-c3ccccc3)nc2-c2ccc(F)cc2)N1 (stereo unspecified) (10 µM) here?
Its value is 0.

With O=[N+]([O-])c1ccc(Sc2cccc[n+]2[O-])c2nonc12 (2.5 µM) as the compound, how does the “number of time points” value read?
The value was 0.

How did the “number of time points” value turn out when COc1nc(-c2ccnc(NC(=O)C3CC3)c2)sc1C(N)=O [GSK-3β inhibitor 2] (10 µM) was run?
The value was 0.

With CCN1/C(=C/C(C)=O)Sc2ccc(OC)cc21 (10 µM) as the compound, how does the “number of time points” value read?
Its value is 0.

With Nc1cccc(S(=O)(=O)N2CCCN(S(=O)(=O)c3ccc4c(c3)OCCO4)CC2)c1 (10 µM) as the compound, how does the “number of time points” value read?
The value was 0.

Nc1ncc(-c2ccc(C(=O)N3CCNCC3)cc2)nc1-c1ccc(C(F)(F)F)cc1 (10 µM) was tested. Which “number of time points” value did it give?
Its value is 0.

For CC[C@H](Nc1ncnc2[nH]cnc12)c1oc2ccccc2c(=O)c1-c1cccc(F)c1 [Tenalisib] (10 µM), which “number of time points” value is on record?
The value was 0.

Which “number of time points” value does the source give for CC(C)(O)[C@@H]1CC[C@](C)([C@H]2[C@@H](O)C[C@@]3(C)[C@@H]4C[C@H](O[C@@H]5O[C@H](CO)[C@@H](O)[C@H](O)[C@H]5O)[C@H]5C(C)(C)[C@@H](O[C@@H]6OC[C@@H](O)[C@H](O)[C@H]6O[C@@H]6O[C@H](CO)[C@@H](O)[C@H](O)[C@H]6O)CC[C@@]56C[C@@]46CC[C@]23C)O1 [Astragaloside VI] (10 µM) here?
The value was 0.

CC(=O)Nc1nc2ccc(-c3cnc(C)c(NC(=O)OC4CCCCC4)c3)cc2s1 (10 µM) was tested. Which “number of time points” value did it give?
The value was 0.

With COc1ccccc1/C=C1\C(=O)Nc2ccccc21 (10 µM) as the compound, how does the “number of time points” value read?
The value was 0.

CC1(N)CCN(c2cnc3c(-c4cccc(Cl)c4Cl)[nH]nc3n2)CC1 (2.5 µM) was tested. Which “number of time points” value did it give?
The value was 0.

For CC(C)C[C@H](NC(=O)[C@H](CCCCN)NC(=O)[C@H](CO)NC(=O)[C@@H](N)CC(C)C)C(N)=O [LSKL, Inhibitor of Thrombospondin (TSP-1) (TFA)] (10 µM), which “number of time points” value is on record?
The value was 0.

CN1CC[C@H](c2c(O)cc(O)c3c(=O)cc(-c4ccc(C(F)(F)F)cc4Cl)oc23)[C@H]1CO [(2S,3R)-Voruciclib (hydrochloride)] (2.5 µM) was tested. Which “number of time points” value did it give?
The value was 0.

With C[C@H]1[C@H](OC(=O)CCC(=O)O)O[C@@H]2O[C@@]3(C)CC[C@H]4[C@H](C)CC[C@@H]1[C@@]24OO3 [Artesunate] (2.5 µM) as the compound, how does the “number of time points” value read?
Its value is 0.

With c1ccc(-c2nn3c(c2-c2ccnc4cc(OCCN5CCOCC5)ccc24)CCC3)nc1 (10 µM) as the compound, how does the “number of time points” value read?
The value was 0.

COc1cc(N2CCC(N(C)C)CC2)ccc1Nc1ncc(Cl)c(Nc2ccccc2P(C)(C)=O)n1 (2.5 µM) was tested. Which “number of time points” value did it give?
The value was 0.

For Cc1ccc(-c2ncn(-c3ccc(Nc4nccc(-c5cccc(N6CCOCC6)c5)n4)cc3)n2)cn1 (10 µM), which “number of time points” value is on record?
Its value is 0.

For CC[C@@H]1[C@H](F)C(=O)N[C@@H]1COc1nccc2cc(C(N)=O)c(OC)cc12 (10 µM), which “number of time points” value is on record?
The value was 0.

With O=C1NC(=O)/C(=C/c2ccc(-c3ccc(F)cc3O)o2)S1 (10 µM) as the compound, how does the “number of time points” value read?
The value was 0.

With Cc1cc(Nc2cc(CN3CCOCC3)c3nc(C)c(Cc4ccc(Cl)cc4F)n3n2)n[nH]1 [Gandotinib] (2.5 µM) as the compound, how does the “number of time points” value read?
The value was 0.

With CN(C)C(=O)c1ccc(S(=O)(=O)c2ccc(NC(=O)[C@@](C)(O)C(F)(F)F)c(Cl)c2)cc1 (10 µM) as the compound, how does the “number of time points” value read?
Its value is 0.

How did the “number of time points” value turn out when CCc1cccc(CC)c1NC(=O)c1nn(C)c2c1CCc1cnc(Nc3ccc(C(=O)NC4CCN(C)CC4)cc3OC(F)(F)F)nc1-2 (2 µM) was run?
The value was 0.

How did the “number of time points” value turn out when O=C(Nc1ccc(Cl)cc1)C1CCCN(C(=O)c2cccc(-c3ccco3)c2)C1 (stereo unspecified) (2.5 µM) was run?
The value was 0.

For CN(C)Cc1cccc(N=C(c2ccccc2)c2c(O)[nH]c3cc(C(=O)N(C)C)ccc23)c1 (10 µM), which “number of time points” value is on record?
The value was 0.
